From PMC7190567 come the findings set out here.

Sequences of proteins named here, by UniProt entry; tags and fusion partners are left off. Residues count along the entry.
UniProt Q60936, residues 160-645: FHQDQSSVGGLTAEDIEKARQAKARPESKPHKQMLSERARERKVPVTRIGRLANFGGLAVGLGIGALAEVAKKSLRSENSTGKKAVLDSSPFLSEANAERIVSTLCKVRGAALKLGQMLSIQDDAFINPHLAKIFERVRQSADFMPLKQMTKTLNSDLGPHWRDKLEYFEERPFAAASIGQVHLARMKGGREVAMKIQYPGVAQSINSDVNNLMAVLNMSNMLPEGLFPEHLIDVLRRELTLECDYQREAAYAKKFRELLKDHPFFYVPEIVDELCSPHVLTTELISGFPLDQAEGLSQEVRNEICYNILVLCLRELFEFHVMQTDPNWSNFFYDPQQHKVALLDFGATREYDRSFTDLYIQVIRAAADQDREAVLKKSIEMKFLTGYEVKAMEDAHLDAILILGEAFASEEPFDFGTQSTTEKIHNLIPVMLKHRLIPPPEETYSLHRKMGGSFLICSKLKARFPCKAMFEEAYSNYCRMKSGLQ
UniProt Q8BYH8: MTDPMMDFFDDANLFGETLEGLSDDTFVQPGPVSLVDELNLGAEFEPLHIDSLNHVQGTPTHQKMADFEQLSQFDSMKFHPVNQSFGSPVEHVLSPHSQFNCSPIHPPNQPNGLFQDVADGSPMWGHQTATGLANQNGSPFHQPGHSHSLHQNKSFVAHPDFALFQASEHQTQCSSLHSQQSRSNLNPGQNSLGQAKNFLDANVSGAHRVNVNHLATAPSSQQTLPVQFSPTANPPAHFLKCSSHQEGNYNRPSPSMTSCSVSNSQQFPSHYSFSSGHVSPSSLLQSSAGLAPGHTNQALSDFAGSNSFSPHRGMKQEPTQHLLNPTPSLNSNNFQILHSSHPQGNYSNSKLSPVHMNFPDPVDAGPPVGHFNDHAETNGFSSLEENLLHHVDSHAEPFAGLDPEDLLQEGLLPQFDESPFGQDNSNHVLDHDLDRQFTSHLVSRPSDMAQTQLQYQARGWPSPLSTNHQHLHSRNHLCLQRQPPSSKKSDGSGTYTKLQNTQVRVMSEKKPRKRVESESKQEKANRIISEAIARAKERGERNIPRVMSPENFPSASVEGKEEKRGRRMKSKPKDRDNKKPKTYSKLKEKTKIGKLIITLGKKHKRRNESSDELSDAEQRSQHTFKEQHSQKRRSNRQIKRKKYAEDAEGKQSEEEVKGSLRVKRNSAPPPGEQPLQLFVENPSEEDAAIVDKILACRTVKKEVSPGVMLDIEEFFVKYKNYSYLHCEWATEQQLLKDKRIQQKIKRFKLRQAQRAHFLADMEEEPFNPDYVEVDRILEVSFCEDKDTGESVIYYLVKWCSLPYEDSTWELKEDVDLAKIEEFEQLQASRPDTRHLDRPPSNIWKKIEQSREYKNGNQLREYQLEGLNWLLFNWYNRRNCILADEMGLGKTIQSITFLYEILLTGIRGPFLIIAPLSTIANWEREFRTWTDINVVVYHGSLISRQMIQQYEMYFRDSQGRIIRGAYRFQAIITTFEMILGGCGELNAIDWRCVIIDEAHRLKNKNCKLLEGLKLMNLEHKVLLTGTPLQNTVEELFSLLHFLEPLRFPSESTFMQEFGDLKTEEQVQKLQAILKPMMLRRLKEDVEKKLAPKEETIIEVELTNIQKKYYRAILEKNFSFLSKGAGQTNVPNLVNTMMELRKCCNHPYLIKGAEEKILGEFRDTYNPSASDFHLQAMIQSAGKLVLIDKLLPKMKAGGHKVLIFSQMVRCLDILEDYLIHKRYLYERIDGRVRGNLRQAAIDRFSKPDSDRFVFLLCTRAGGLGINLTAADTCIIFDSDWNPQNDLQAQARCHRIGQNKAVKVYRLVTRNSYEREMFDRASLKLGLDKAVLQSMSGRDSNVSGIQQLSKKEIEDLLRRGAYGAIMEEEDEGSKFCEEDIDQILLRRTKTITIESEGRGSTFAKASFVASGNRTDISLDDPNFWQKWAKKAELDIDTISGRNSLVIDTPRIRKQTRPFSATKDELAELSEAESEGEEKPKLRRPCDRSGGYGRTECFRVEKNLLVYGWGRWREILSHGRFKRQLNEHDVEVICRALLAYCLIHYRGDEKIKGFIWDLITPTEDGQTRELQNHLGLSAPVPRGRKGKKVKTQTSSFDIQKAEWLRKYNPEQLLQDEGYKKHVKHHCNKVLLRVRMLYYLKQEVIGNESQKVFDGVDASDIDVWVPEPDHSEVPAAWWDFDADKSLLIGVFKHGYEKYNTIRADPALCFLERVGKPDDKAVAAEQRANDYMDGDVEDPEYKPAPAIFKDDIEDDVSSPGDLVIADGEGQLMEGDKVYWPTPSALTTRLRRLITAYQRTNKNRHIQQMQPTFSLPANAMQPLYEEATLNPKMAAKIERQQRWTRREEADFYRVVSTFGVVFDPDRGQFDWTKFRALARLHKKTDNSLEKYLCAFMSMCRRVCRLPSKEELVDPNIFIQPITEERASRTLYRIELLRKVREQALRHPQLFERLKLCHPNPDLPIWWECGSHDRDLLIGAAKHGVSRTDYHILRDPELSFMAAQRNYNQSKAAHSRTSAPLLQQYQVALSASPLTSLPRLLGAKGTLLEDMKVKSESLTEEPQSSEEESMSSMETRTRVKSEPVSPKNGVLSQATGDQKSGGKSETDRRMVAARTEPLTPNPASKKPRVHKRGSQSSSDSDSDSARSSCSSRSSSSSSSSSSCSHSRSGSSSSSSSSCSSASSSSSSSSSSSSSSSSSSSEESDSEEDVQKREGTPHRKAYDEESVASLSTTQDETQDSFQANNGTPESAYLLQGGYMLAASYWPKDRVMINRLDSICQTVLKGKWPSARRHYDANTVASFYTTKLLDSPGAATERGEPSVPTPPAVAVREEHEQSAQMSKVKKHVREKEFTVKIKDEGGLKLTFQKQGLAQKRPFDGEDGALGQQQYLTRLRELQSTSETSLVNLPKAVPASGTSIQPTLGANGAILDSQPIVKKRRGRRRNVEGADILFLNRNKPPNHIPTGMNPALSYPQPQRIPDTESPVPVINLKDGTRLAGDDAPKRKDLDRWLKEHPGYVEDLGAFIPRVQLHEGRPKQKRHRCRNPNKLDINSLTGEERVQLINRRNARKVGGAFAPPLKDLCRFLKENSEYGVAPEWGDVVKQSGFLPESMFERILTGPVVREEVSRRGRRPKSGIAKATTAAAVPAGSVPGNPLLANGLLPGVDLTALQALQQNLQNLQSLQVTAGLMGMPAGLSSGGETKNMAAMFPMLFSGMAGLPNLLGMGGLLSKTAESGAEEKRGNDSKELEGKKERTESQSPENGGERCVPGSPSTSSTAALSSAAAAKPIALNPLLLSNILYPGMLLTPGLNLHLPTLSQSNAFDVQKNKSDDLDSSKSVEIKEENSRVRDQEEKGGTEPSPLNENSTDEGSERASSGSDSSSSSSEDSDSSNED

No constants are given. Whether binding was seen depends on the method and setting. In cells and extracts the contact can be indirect. A yes stands for co-enrichment or nearness to the bait. Other partners may have been found.

Test [1] concerns the target T1, Caveolin-1 (wild type) (dog) (UniProt P33724).
T1 sequence: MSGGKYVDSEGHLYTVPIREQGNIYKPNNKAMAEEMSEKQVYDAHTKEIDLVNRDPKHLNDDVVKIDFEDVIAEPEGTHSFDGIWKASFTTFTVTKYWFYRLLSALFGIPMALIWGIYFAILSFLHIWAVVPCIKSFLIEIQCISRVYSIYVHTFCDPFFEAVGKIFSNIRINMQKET
Put plainly: affinity purification with mass spectrometry; CAV1 immunoprecipitated with polyclonal anti-CAV1 on Dynabeads from B16F10(CAV1) cells (no E-cadherin); trypsin digest, nano-ESI-MS/MS on an LTQ ion trap, Mascot; only proteins unique to this sample listed.

Test [2] concerns the target T1, Caveolin-1 (wild type) (dog). The experiment in a line: affinity purification with mass spectrometry; CAV1 immunoprecipitated with polyclonal anti-CAV1 on Dynabeads from B16F10(CAV1-E-cadherin) cells; trypsin digest, nano-ESI-MS/MS on an LTQ ion trap, Mascot; only proteins unique to this sample listed.

“Chaperone activityof bc1 complex-like, mitochondrial (from UniProt Q60936 160-645)”: the binding entry in test [1] is on record as “binds”.
Same read-out and setting: then “Chromodomain-helicase-DNA-binding protein 9 (from UniProt Q8BYH8 1-2885)”, with “binds”.

B1: Nucleolar RNA helicase 2 (protein, UniProt Q9JIK5 1-851)
chain: MPGKLRSGAKLGSDGAEESMETLPKPSEKKTRKEKTKSKTEEATEGMEEAVSSKAKKTNKKGPSEDDVDPPKSRKAKKQEEEPQDDTASTSKTSKKKKEPLEKQADSETKEIITEEPSEEEADMPKPKKMKKGKEANGDAGEKSPKLKNGLSQPSEEEADIPKPKKMKKGKEANGDAGEKSPKLKNGLSQPSEEEVDIPKPKKMKKGKEASGDAGEKSPRLKDGLSQPSEPKSNSSDAPGEESSSETEKEIPVEQKEGAFSNFPISEETVKLLKARGVNFLFPIQAKTFHHVYSGKDLIAQARTGTGKTFSFAIPLIEKLQGGLQERKRGRAPQVLVLAPTRELANQVSKDFSDITKKLSVACFYGGTPYGGQIERMRSGIDILVGTPGRIKDHLQNGKLDLTKLKHVVLDEVDQMLDMGFADQVEEILCVAYKKDSEDNPQTLLFSATCPHWVFNVAKKYMKSTYEQVDLIGKKTQKAAITVEHLAIKCHWTERAAVIGDVIRVYSGHQGRTIIFCETKKDAQELSQNTCIKQDAQSLHGDIPQKQREITLKGFRNGNFGVLVATNVAARGLDIPEVDLVVQSCPPKDVESYIHRSGRTGRAGRTGVCICFYQNKEEYQLAQVEQKAGIKFKRIGVPSATEIIKASSKDAIRLLDSVPPTAISHFKQSAEKLIEEKGAVEALAAALAHISGATSVDQRSLINSQAGFVTMILRCSIEMPNISYAWKELKEQLGESIDAKVKGMVFLKGKLGVCFDVRTEAVTEIQEKWHDSRRWQLTVATEQPELEGPPDGYRGRMGQRDGSRGAFRGQRGGSRNFRGQGQRGGSRNFRGQRPGGGNRGQKRSFSKAFGQ
B1: the binding result in test [2] was “binds”.

B2: DNA repair and recombination protein RAD54B (protein, UniProt Q6PFE3 1-886)
chain: MRRSAAPSQVQGKSFKKTRFIPPGRSNADVSKEITKMSPDPKLFQGAEQSQNDPGVCSSNPCPSEGIPREVGDGTRVDPLPPVHSASKEITESKAQEEEASSLLKYFSVVWCKASKKKHKKWEGDAILIVRGRSFTLKDLEGKDIGRGIGYKFKDLENVEEGQTLIIGGKEIEILGTISSDDFNSGKCFQHGSGSPAVPSSQAARKCFSNPFKSVCQSTQAQGKRWNDCRPRHNPCTPNALVMPRPDENHQRMFNRHCSPIVDVVIDPHLVHHLRPHQKDGIIFLYECVMGMRAVGKCGAILADEMGLGKTLQCISLIWTLQCQGPYGGKPVIKKTLIVTPGSLVNNWRKEFQKWLGSERIKIFTVDQDHKVEEFINSTFHSVLIISYEMLLRSLDQIKTIPFGLLICDEGHRLKNSSIKTTTALSSLSCEKTVILTGTPVQNDLQEFFALVDFVNPGILGSLSSYRKIYEEPIIISREPSSSKEERELGERRATELTRLTGRFILRRTQEVINKYLPPKIENVVFCRPGALQIELYRKLLRSQSVRFCLQGLLENSAHLICIGALKKLCNHPCLLFSSVKGKEFSSSCEENEERNLCQGLLSVFPAGYNPLQFSEEESGKLQVLVKLLAVIHELRPTEKVILVSNYRQTLNVLEEVCKRHGYACARLDGQTPVSQRQHIVDSFNSKYSTDFIFLLSSKAGGVGLNLIGGSHLILYDIDWNPATDIQAMSRVWRDGQKHPVHIYRLLTTGTIEEKIYQRQISKQGLSGAVVDLTRSSEHIQFSVEELKNLFTLHESSHCVTHDLLDCECTGEKGHTEDASEGPVASRQCQFGPQKSDALRPLSMSQLKQWKHFSGDHLNLPDPFLERIRENVSFFFQNITNQAPAV
As to B2, the binding result in test [2] is “binds”.

B3: BADHD1, Bromo adjacent homology domain-containing 1 protein (protein, UniProt Q497V6 1-772)
chain: MTHTRRKSLPMLSSGPTGRGEPLQMEDSNMEQGTEDVEPGMPESPGHLTGRRKNYPLRKRSLVPEKPKACKVLLTRLENVAGPRSADEADELPPDLPKPPSPTSSSEDAGLVQPRKRRLASLNAEALNNLLLEREETSSLAGARRSRGGDPHRSRDRATGSWSFSKKRPRLGDLGEGSRDLSPELAPDEGARRDGDPAPKRLASLNAAAFLKLSQERELPLRPSRAQAEADGRSTEPLAPRILRPKVNGKNCPKARQGAGSGEATGPPNWQEQPDERWPSAPPHGPPTQPSHQAPGKALENPLRPNLPLLMGGQAALKPEPGRPGEESPAPKQELHQPSFPAPQLSPLPMPGNPADYSGPCGGPELTALGSFYLYCGQDGLQCGAYSPCPMLPEGKLSPVAAPNEGLLMAPSSVPSGVPFQHPPWSAPRYCSSEDTGANGYSICGVLPLSLTHIGTTCGGCPYKMPFTAEGCRSLGQLEFPLPEAGHPASPAHPLLGCPVPSVPPAAEPIPHLQTPISEPQTVARACPQSAKPPSGSKSGLRTGSSCRHTVRSKAARRPSHPKQPRAQRPRPRRRRRRRTNGWVPVGAACEKAVYVLDEPEPAIRKSYQAVERHGETIRVRDTVLLKSGPRKTSTPYVAKISALWENPESGELMMSLLWYYRPEHLQGGRSPSMHEPLQNEVFASRHQDQNSVACIEEKCYVLTFAEYCRFCAMAKRRGEGLPSRKTALVPPSADYSTPPHRTVPEDTDPELVFLCRHVYDFRHGRILKNPQ
In the case of B3, the binding result in test [2] is recorded as “binds”.

B4: Protein Jumonji (protein, UniProt Q62315 1-1234)
chain: MSKERPKRNIIQKKYDDSDGIPWSEERVVRKVLYLSLKEFKNAQKRQHGEGLAGSLKAVNGLLGNAQAKALGPASEQSENEKDDASQVSSTSNDVSSSDFEEGPSRKRPRLQAQRKFAQSQPNSPSTTPVKIVEPLLPPPATQISDLSKRKPKTEDFLTFLCLRGSPALPNSMVYFGSSQDEEDVEEEDDETEDVKATTNNASSSCQSTPRKGKTHKHVHNGHVFNGSSRSAREKEPAHKHRSKEATPGKEKHSEPRADSRREQASGAQPTAASAAASSAKGLAANHQPPPSHRSAQDLRKQVSKVNGVTRMSSLGAGTNSAKKIREVRPSPSKTVKYTATVTKGTVTYTKAKRELVKETKPNHHKPSSAVNHTISGKTESSNAKTRKQVLSLGGASKSTGPAASGLKASSRLNPKSCTKEVGGRQLREGLRNSKRRLEEAQQVDKPQSPPKKMKGVAGNAEAPGKKASAASGEKSLLNGHVKKEVPERSLERNRPKRAAAGKNMLGKQAHGKTEGTPCENRSTSQPESSHKPHDPQGKPEKGSGKSGWAAMDEIPVLRPSAKEFHDPLIYIESVRAQVEKYGMCRVIPPPDWRPECKLNDEMRFVTQIQHIHKLGRRWGPNVQRLACIKKHLRSQGITMDELPLIGGCELDLACFFRLINEMGGMQQVTDLKKWNKLADMLRIPKTAQDRLAKLQEAYCQYLLSYDSLSPEEHRRLEKEVLMEKEILEKRKGPLEGHTESDHHKFHSLPRFEPKNGLVHGVTPRNGFRSKLKEVGRAPLKTGRRRLFAQEKEVVKEEEEDKGVLNDFHKCIYKGRSVSLTTFYRTARNIMNMCFSKEPAPAEIEQEYWRLVEEKDCHVAVHCGKVDTNTHGSGFPVGKSEPFSRHGWNLTVLPNNTGSILRHLGAVPGVTIPWLNIGMVFSTSCWSRDQNHLPYIDYLHTGADCIWYCIPAEEENKLEDVVHTLLQGNGTPGLQMLESNVMISPEVLCKKGIKVHRTVQQSGQFVVCFPGSFVSKVCCGYNVSETVHFATTQWTSMGFETAKEMKRRHIAKPFSMEKLLYQIAQAEAKKENGPTLSTISALLDELRDTELRQRRLLFEAGLHSSARYGSHDGNSTVADGKKKPRKWLQLETSERRCQICQHLCYLSMVVQENENVVFCLECALRHVEKQKSCRGLKLMYRYDEEQIISLVNQICGKVSGKHGGIENCLNKPTPKRGPRKRATVDVPPSRLPSS
In the case of B4, in test [2], the binding result is given as “binds”.

B5: DnaJ homolog subfamily C member 7 (protein, UniProt Q9QYI3 1-494)
chain: MAATAECDVVMAATEPELLEDEDAKREAESFKEQGNAYYAKKDYNEAYNYYTKAIDMCPNNASYYGNRAATLMMLGRFREALGDAQQSVRLDDSFVRGHLREGKCHLSLGNAMAACRSFQRALELDHKNAQAQQEFKNANAVMEYEKIAEVDFEKRDFRKVVFCMDRALEFAPACHRFKILKAECLAMLGRYPEAQFVASDILRMDSTNADALYVRGLCLYYEDCIEKAVQFFVQALRMAPDHEKACVACRNAKALKAKKEDGNKAFKEGNYKLAYELYTEALGIDPNNIKTNAKLYCNRGTVNSKLRQLEDAIEDCTNAVKLDDTYIKAYLRRAQCYMDTEQFEEAVRDYEKVYQTEKTKEHKQLLKNAQLELKKSKRKDYYKILGVDKNASEDEIKKAYRKRALMHHPDRHSGASAEVQKEEEKKFKEVGEAFTILSDPKKKTRYDSGQDLDEEGMNMGDFDANNIFKAFFGGPGGFSFEASGPGNFYFQFG
For B5, in test [2], the binding entry was “binds”.
